Data taken from patent US20240252686A1 (SKYLINE THERAPEUTICS, published 2024).
No constants are given. Whether binding was seen depends on the method and setting. Some entries that bind do so weakly or less than the wild type. Sequences can lack the tags named with a protein.

By UniProt entry, the sequences of proteins in these tests, tags left out. Where a name states a change or a piece, a line headed by the entry shows the natural chain unless it says otherwise. Chains listed by the source or under a name are the forms on record and can include a tag or linker.
VEGFA-165 (R&D systems 293-VE/CF) (P15692-4, form named): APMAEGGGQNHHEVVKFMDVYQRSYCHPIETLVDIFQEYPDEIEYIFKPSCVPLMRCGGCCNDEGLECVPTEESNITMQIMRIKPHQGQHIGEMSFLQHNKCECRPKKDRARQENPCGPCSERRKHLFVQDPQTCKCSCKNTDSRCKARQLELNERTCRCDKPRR

Biological target: T1, VEGFA-165 (R&D systems 293-VE/CF) (human, UniProt P15692-4 27-191)
T1 construct: Coated on ELISA plates or added in solution to reporter cells; also called human VEGF; human VEGFA
Test: ELISA, VEGFA-165 coated, supernatant, anti-HA detection
Procedure: After removing the blocker, the primary antibody (rabbit anti-HA, Thermo, PA1-985) was diluted (1:5000) with the blocking buffer (StartingBlock™ T20 (TBS) Blocking Buffer, Catalog number: 37543 of Thermo Fisher Scientific), and added to ELISA plate (50 μl/well), followed by the incubation at RT for 1h with 250 rpm gentle shaking. After washing with 1×TBST buffer for 3 times, the secondary antibody (Goat anti-rabbit-HRP, Invitrogen, 3146) was diluted (1:5000) with the blocking buffer, and added to the ELISA plate (50 μl/well), followed by the incubation at RT for 1h with gentle shaking. After washing the ELISA plate with 1×TBST for 3 times, the TMB substrate (Thermo Scientific, REF34028) was added the plate (50 μl/well); after the incubation at RT for 5-10 min, 2M H₂SO₄ was added to stop the TMB reaction. OD450 and OD525 of the ELISA plate were detected.

binding: binds
B1: bi-valent Nb24, product expressed by pGCB108-ITR130-AMDF1Nb24-5-(G4S)4-Nb24-5-HA (VHH)
chain: EVQLQESGGGLVQPGGSLRLSCTASGFTFDDPDVGWFRQAPGNECELVSTISKDGSTYYTDSVKGRFTISRDYAKNTVYLQMNSLRAEDTAVYYCAADSNPIAPIRTCLGWYNYWGQGTLVTVSSGGGGSGGGGSGGGGSGGGGSEVQLQESGGGLVQPGGSLRLSCTASGFTFDDPDVGWFRQAPGNECELVSTISKDGSTYYTDSVKGRFTISRDYAKNTVYLQMNSLRAEDTAVYYCAADSNPIAPIRTCLGWYNYWGQGTLVTVSSYPYDVPDYA
notes: Two copies of Nb24 in a single polypeptide; supernatant of transfected Expi293 cells; also called 24-5-G4S4-24-5
